# The campaign covered roughly 320,000 compounds. About 22,000 (6.9%) were called active. Inconclusive means that the source gave no clear call. Such entries were picked first, then a sample of the others. Calls come from the whole dose curve; as a rule, active = well fitted inhibition curve with a large enough effect; inconclusive = small, poorly fitted or top-dose-only effect, or another doubt; inactive = no such curve, though single readings can be large or run the other way. Where the call is inconclusive, the potency comes from a doubtful curve fit.
# Test: Primary qHTS for delayed death inhibitors of the malarial parasite plastid, 96 hour incubation
# Details: P. falciparum luciferase reporter growth; series mostly up to 28.7 µM
# Procedure, shortened: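 96 h incubation, 37 C, 5% CO2, of luciferase-reporter P. falciparum-infected RBCs (2% hematocrit, 0.05% parasitemia final) with test compounds; endpoint luminescence.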
# Potency is the fitted concentration of half-maximal effect.
row,SMILES,Potency
1,COCCNC(=S)N/N=C(\C)c1ccc(Cl)c(Cl)c1Cl,"inconclusive: 8.28 µM [inhibitor, partial curve, poor fit]"
2,Cc1ccc(-c2nc3ccccc3c(=O)n2N)cc1,"inconclusive: 18.5 µM [inhibitor, single point]"
3,O=C1C2CC=CCC2C(=O)N1c1n[nH]c(-c2ccccc2)n1 (configuration not stated),inactive
4,Cc1cc(NC(=O)Cn2c(=O)c3c(ncn3CC(C)C)n(Cc3ccccc3)c2=O)no1,active: 4.65 µM
5,Cc1cc(C(=O)N2CCc3c([nH]c4ccccc34)C2c2cccc(Cl)c2)nn1C (configuration not stated),active: 11.7 µM
6,COC(=O)C1=C(c2cccc(OCc3ccccc3)c2)C[C@@H]2CC[C@H]1N2C(=O)NCc1cc(C)oc1C(F)(F)F,"inconclusive: 5.22 µM [inhibitor, partial curve, poor fit]"
7,O=C(N/N=C/c1ccc(Sc2nc3ccccc3s2)c([N+](=O)[O-])c1)c1ccccn1,active: 10.4 µM
8,Cc1ccc(NC(=O)Nc2cccc(C(F)(F)F)c2)nc1,"inconclusive: 18.5 µM [inhibitor, single point]"
9,CCOC(=O)N1N=C(c2ccccc2)CC1(O)C(C)(F)F (configuration not stated),"inconclusive: 13.1 µM [inhibitor, single point]"
10,COc1ccc(NS(=O)(=O)c2ccc3oc(SCc4ccc(F)cc4)nc3c2)cc1,"inconclusive: 18.5 µM [inhibitor, single point]"
11,CCOc1ccc(N(C)S(=O)(=O)c2ccc(-c3cc(C)no3)s2)cc1,"inconclusive: 11.7 µM [inhibitor, single point]"
12,CC(C)c1ccc(NC2CCCN(C(=O)CCc3cn[nH]c3)C2)cc1 (configuration not stated),"inconclusive: 11.7 µM [inhibitor, single point]"
13,CCN(CC)CCn1cnc2c1c(=O)[nH]c(=O)n2Cc1ccccc1,"inconclusive: 9.28 µM [inhibitor, partial curve, poor fit]"
14,Cc1ccc(OCC(=O)NCCNC(=O)c2ccncc2)cc1C,"inconclusive: 20.8 µM [inhibitor, partial curve, poor fit]"
15,Cc1cc(C)cc(N(CC(=O)NC2CCCC2)C(=O)CCC(=O)Nc2nccs2)c1,inactive
16,CCCC1=C(C(=O)OCC)C(c2ccc(N(C)C)cc2)n2ncnc2N1 (configuration not stated),"inconclusive: 18.5 µM [inhibitor, single point]"
17,Cc1ccc(-c2nc(CN(Cc3c(C)nn(C)c3C)C(C)C)c(C)o2)o1,"inconclusive: 18.5 µM [inhibitor, single point]"
18,C=C(C)COc1ccc2c(C)c(CCC(=O)NC3CC3)c(=O)oc2c1,active: 10.4 µM
19,Cc1ccc(S(=O)(=O)/N=C(/Nc2ccc(O)c(C(=O)O)c2)c2ccccc2)cc1,inactive
20,CCOC(=O)N1CCN(CC(=O)Nc2c(C(=O)OC)[nH]c3cc(C)ccc23)CC1,"inconclusive: 1.65 µM [inhibitor, partial curve]"
21,O=C(O)c1ccccc1CSc1nc2ccccc2[nH]1,inactive

row,SMILES,Potency
1,CN(C(=O)CSc1nnc(CN2CCCC2)n1Cc1ccccc1)c1ccccc1,"inconclusive: 4.15 µM [inhibitor, partial curve]"
2,CC(C)CC(=O)N1CCN(S(=O)(=O)c2ccccc2)CC1,inactive
3,S=C(Nc1ccc(Oc2ccccc2)cc1)Nc1cccnc1,"inconclusive: 18.5 µM [inhibitor, partial curve, poor fit]"
4,Cc1nn(-c2ccccn2)c(N)c1N=O,"inconclusive: 0.294 µM [inhibitor, full curve, poor fit]"
5,Cc1cccc(Nc2nc(NCc3ccco3)nc(N3CCOCC3)n2)c1,"inconclusive: 9.28 µM [inhibitor, partial curve]"
6,CCc1cc2ccc(C)cc2nc1SCC(=O)Nc1cc(OC)c(OC)cc1C(=O)O,"inconclusive: 18.5 µM [inhibitor, single point]"
7,O=C(c1nc2ccccn2c1CNCCOc1cccnc1)N1CCOCC1,"inconclusive: 10.4 µM [inhibitor, single point]"
8,CS(=O)(=O)N1N=C(c2ccc3nccnc3c2)CC1c1ccccc1 (configuration not stated),"inconclusive: 11.7 µM [inhibitor, single point]"
9,Cc1ccc(-n2c(C)cc(/C=C3/C(=O)NC(=O)N(Cc4ccco4)C3=O)c2C)cc1,"inconclusive: 18.5 µM [inhibitor, single point]"
10,CC(Oc1ccc(F)cc1Br)c1nc2ccccc2c(=O)[nH]1 (configuration not stated),"inconclusive: 18.5 µM [inhibitor, single point]"
11,CCc1ccc(OCC(=O)N2CC(C(N)=O)Oc3ccccc32)cc1 (configuration not stated),"inconclusive: 0.329 µM [inhibitor, full curve]"
12,CN(C)c1ccc(N=Nc2ccccc2C(=O)OCC(=O)N(C)C2CCCCC2)cc1,"inconclusive: 10.4 µM [inhibitor, single point]"
13,O=C(CCc1nnc(Cc2ccc(-c3ccccc3)cc2)o1)N1CCCC1,active: 9.28 µM
14,CN(C)c1ccc(-c2nc3ccccc3n2C)cc1,"inconclusive: 16.5 µM [inhibitor, single point]"
15,O=P(Cc1cc[n+]([O-])cc1)(c1ccccc1)c1ccccc1,"inconclusive: 7.38 µM [inhibitor, partial curve]"
16,Cc1ccc(-c2noc(-c3ccccc3Br)n2)cc1,inactive
17,COc1ccc2cc3cc(C(=O)N4CCCCC4C)oc3nc2c1 (configuration not stated),"inconclusive: 11.7 µM [inhibitor, single point]"
18,Cc1ccc(S(=O)(=O)N2CCC(C(=O)N[C@H](C(=O)N3CCN(C)CC3)C(C)C)CC2)cc1,"inconclusive: 10.4 µM [inhibitor, partial curve, poor fit]"
19,Cc1cc(=O)oc2cc(OCc3ccc(C(=O)N4CCN(c5ccccc5)CC4)cc3)ccc12,"inconclusive: 11.7 µM [inhibitor, single point]"
20,Cc1ccc(N=Nc2c(C)[nH]n(C(N)=S)c2=O)cc1,"inconclusive: 18.5 µM [inhibitor, single point]"
21,Cc1ccc(NC(=O)CC2Oc3ccccc3NC2=O)c(C)c1 (configuration not stated),"inconclusive: 16.5 µM [inhibitor, partial curve, poor fit]"

# Another view of part of the listing above:
row | SMILES | Potency
3 | O=C1C2CC=CCC2C(=O)N1c1n[nH]c(-c2ccccc2)n1 (configuration not stated) | inactive
4 | Cc1cc(NC(=O)Cn2c(=O)c3c(ncn3CC(C)C)n(Cc3ccccc3)c2=O)no1 | active: 4.65 µM
5 | Cc1cc(C(=O)N2CCc3c([nH]c4ccccc34)C2c2cccc(Cl)c2)nn1C (configuration not stated) | active: 11.7 µM
6 | COC(=O)C1=C(c2cccc(OCc3ccccc3)c2)C[C@@H]2CC[C@H]1N2C(=O)NCc1cc(C)oc1C(F)(F)F | inconclusive: 5.22 µM [inhibitor, partial curve, poor fit]
7 | O=C(N/N=C/c1ccc(Sc2nc3ccccc3s2)c([N+](=O)[O-])c1)c1ccccn1 | active: 10.4 µM
8 | Cc1ccc(NC(=O)Nc2cccc(C(F)(F)F)c2)nc1 | inconclusive: 18.5 µM [inhibitor, single point]
9 | CCOC(=O)N1N=C(c2ccccc2)CC1(O)C(C)(F)F (configuration not stated) | inconclusive: 13.1 µM [inhibitor, single point]
10 | COc1ccc(NS(=O)(=O)c2ccc3oc(SCc4ccc(F)cc4)nc3c2)cc1 | inconclusive: 18.5 µM [inhibitor, single point]
